# Data as given in PMC10279700, “Structural insights into regulation of the PEAK3 pseudokinase scaffold by 14-3-3” (Nature Communications, 2023).
# These are yes or no findings as the source states them, for the method shown. Binding seen in cells or lysates may run through a third protein. Some binding calls cover weakened binding; strength is not graded here. Tags and fused reporters may be left off the sequences shown.
# Tests used:
# [1] = biological target: FLAG-tagged PEAK3 S69A (human) (UniProt Q6ZS72); assay: co-IP; HA-tagged and FLAG-tagged PEAK3 (WT or S69A) co-expressed in HEK293; anti-FLAG or anti-HA/protein A beads; Western blot
# [2] = biological target: FLAG-tagged WT PEAK3 (human) (UniProt Q6ZS72); assay: as above
binding [1],binding [2],Binder
binds,,"FLAG-tagged PEAK3 S69A (protein, UniProt Q6ZS72 1-473) MSSPEPPTEPPEPDNPTWSTQPTYSNLGQIRAHLLPSKACRLRTPGSLSTNPEPLPPPLPKKILTRTQALPTRRTLHPSSIQVQPPRRPFLGSHSVDKSQAAVGPACLPAELTFGPADAPLGLSLRDLHSPEAVHTALAARQLQGLRTIYARLRARLMGGHPGPCHPGHSFRLLDSSPCAESGDALYYRVVRAHEDAWHILVAKVPKPGADVPHPWGLELQASLSPHFNLQGLCGLVPEGTLPGAPWRGAVALAAEVPERTVAQWLAEACTQPPEEFVWAVALLLLQLSAALKFLEAWGAALVELRPENLLLVAPRGCATTGPPRLLLTDFGRVCLQPPGPPGSPGPHAPQLGSLLRALLSLAAPSTTPLAAGLELLAAQLTRLRPSASRTRGALQALLWGPGPELRGRGAPLGPWLRALGPWLRVRRGLLVLRLAERAAGGEAPSLEDWLCCEYLAEATESSMGQALALLWD"
,binds,"FLAG-tagged WT PEAK3 (protein, UniProt Q6ZS72 1-473) MSSPEPPTEPPEPDNPTWSTQPTYSNLGQIRAHLLPSKACRLRTPGSLSTNPEPLPPPLPKKILTRTQSLPTRRTLHPSSIQVQPPRRPFLGSHSVDKSQAAVGPACLPAELTFGPADAPLGLSLRDLHSPEAVHTALAARQLQGLRTIYARLRARLMGGHPGPCHPGHSFRLLDSSPCAESGDALYYRVVRAHEDAWHILVAKVPKPGADVPHPWGLELQASLSPHFNLQGLCGLVPEGTLPGAPWRGAVALAAEVPERTVAQWLAEACTQPPEEFVWAVALLLLQLSAALKFLEAWGAALVELRPENLLLVAPRGCATTGPPRLLLTDFGRVCLQPPGPPGSPGPHAPQLGSLLRALLSLAAPSTTPLAAGLELLAAQLTRLRPSASRTRGALQALLWGPGPELRGRGAPLGPWLRALGPWLRVRRGLLVLRLAERAAGGEAPSLEDWLCCEYLAEATESSMGQALALLWD"
